# Laboratory results published in patent US20260183405A1 (priority 2022, published 2026).
# Test: general procedure: solution-phase peptide synthesis; NHS active esters with DIEA
# [1] = late stage modification step, TFA salt
# [2] = late stage modification step, disodium
substance,measurement,setting,value
Boc-Intermediate 13,final purity (method not given),"coupling step, TFA salt",93% purity
same,step yield,"coupling step, TFA salt",79% yield
Boc-Intermediate 8,final purity (method not given),"coupling step, TFA salt",98% purity
same,step yield,"coupling step, TFA salt",81% yield
Boc-Intermediate 17,final purity (method not given),"coupling step, TFA salt",100% purity
same,step yield,"coupling step, TFA salt",55% yield
Boc-Intermediate 14,conjugation yield,"conjugation step, TFA salt",67% yield
same,final purity (method not given),"conjugation step, TFA salt",100% purity
Boc-Intermediate 9,conjugation yield,"conjugation step, TFA salt",52% yield
same,final purity (method not given),"conjugation step, TFA salt",87% purity
Boc-Intermediate 16,final purity (method not given),"coupling step, TFA salt",98% purity
same,step yield,"coupling step, TFA salt",63% yield
"trifluoroacetic acid. N-[(benzyloxy)carbonyl]-N-methyl-L-valyl-N-[(3R,4S,5S)-3-methoxy-1-{(2S)-2-[(1R,2R)-1-methoxy-2-methyl-3-oxo-3-{[(1S,2R)-1-phenyl-1-(L-valyloxy)propan-2-yl]amino}propyl]pyrrolidin-1-yl}-5-methyl-1-oxoheptan-4-yl]",crude LC-MS purity,[1],100% purity
"trifluoroacetic acid. N,N-dimethyl-L-valyl-N-[(3R,4S,5S)-3-methoxy-1-{(2S)-2-[(1R,2R)-1-methoxy-2-methyl-3-{[(2S)-1-{[3-methyl-3-(L-valyloxy)butyl]amino}-1-oxo-3-phenylpropan-2-yl]amino}-3-oxopropyl]pyrrolidin-1-yl}-5-methyl-1-oxoheptan-4-yl]-N-methyl-L-valin",crude LC-MS purity,[1],95% purity
same,step yield,[1],93% yield
Boc-Intermediate 18,conjugation yield,"conjugation step, TFA salt",73% yield
same,final purity (method not given),"conjugation step, TFA salt",100% purity
"(4S)-4,11-Diethyl-3,14-dioxo-3,4,12,14-tetrahydro-1H-pyrano[3′,4′:6,7]indolizino[1,2-b]quinolin-4-yl N-[3-(2-{2-[2-(L-lysylamino)ethoxy]ethoxy}ethoxy)propanoyl]-L-alpha-aspartyl-L-prolyl-L-valinate⋅trifluoroacetic acid (1:1)",crude purity (method not given),[1],100% purity
"N^2-(3-{2-[2-(2-aminoethoxy)ethoxy]ethoxy}propanoyl)-L-asparaginyl-L-prolyl-N-[(2S)-4-[{(1R)-1-[1-benzyl-4-(2,5-difluorophenyl)-1H-pyrrol-2-yl]-2,2-dimethylpropyl}(hydroxyacetyl)amino]-1-(methylamino)-1-oxobutan-2-yl]-L-valinamide",final LC-MS purity,[1],96% purity
same,step yield,[1],97% yield
"N^2-[3-(2-{2-[2-(L-lysylamino)ethoxy]ethoxy}ethoxy)propanoyl]-L-asparaginyl-L-prolyl-N-{3-[{(1R)-1-[1-benzyl-4-(2,5-difluorophenyl)-1H-pyrrol-2-yl]-2,2-dimethylpropyl}(hydroxyacetyl)amino]propyl}-L-valinamide",crude LC-MS purity,[1],92% purity
same,step yield,[1],81% yield
PEPTIDE1{[avb3R].[PEG3].D.P.V.[MMAE-O-2open]}$$$$V2.0,purity (crude or final not stated),[2],96% purity
same,step yield,[2],96% yield
"trisodium 1-[(2S)-15-{[N^2,N^6-bis(14-{4-[({(1R)-2-carboxylato-1-[3-({3-[(propylcarbamoyl)amino]benzene-1-sulfonyl}amino)phenyl]ethyl}carbamoyl)amino]anilino}-14-oxo-4,7,10-trioxa-13-azatetradecanan-1-oyl}-L-lysyl]amino)-2-(carboxylatomethyl)-4-oxo-7,10,13-trioxa-3-azapentadecanan-1-oyl]-L-prolyl-N-[(2S)-4-[{(1R)-1-[1-benzyl-4-(2,5-difluorophenyl)-1H-pyrrol-2-yl]-2,2-dimethylpropyl}(hydroxyacetyl)amino]-1-(methylamino)-1-oxobutan-2-yl]-L-valinamide",purity (crude or final not stated),[1],96% purity
same,step yield,[1],100% yield

# HELM strings list residues between dots; [ac] is acetyl, [am] amide, other brackets name non-standard units.
